Results reported in patent US20230132177A1.
These are yes or no findings as the source states them, for the method shown. Some binding calls cover weakened binding; strength is not graded here.

The chains behind the UniProt entries cited, without tags or fusion partners. Where a name states a change or a piece, a line headed by the entry shows the natural chain unless it says otherwise.
UniProt P02671: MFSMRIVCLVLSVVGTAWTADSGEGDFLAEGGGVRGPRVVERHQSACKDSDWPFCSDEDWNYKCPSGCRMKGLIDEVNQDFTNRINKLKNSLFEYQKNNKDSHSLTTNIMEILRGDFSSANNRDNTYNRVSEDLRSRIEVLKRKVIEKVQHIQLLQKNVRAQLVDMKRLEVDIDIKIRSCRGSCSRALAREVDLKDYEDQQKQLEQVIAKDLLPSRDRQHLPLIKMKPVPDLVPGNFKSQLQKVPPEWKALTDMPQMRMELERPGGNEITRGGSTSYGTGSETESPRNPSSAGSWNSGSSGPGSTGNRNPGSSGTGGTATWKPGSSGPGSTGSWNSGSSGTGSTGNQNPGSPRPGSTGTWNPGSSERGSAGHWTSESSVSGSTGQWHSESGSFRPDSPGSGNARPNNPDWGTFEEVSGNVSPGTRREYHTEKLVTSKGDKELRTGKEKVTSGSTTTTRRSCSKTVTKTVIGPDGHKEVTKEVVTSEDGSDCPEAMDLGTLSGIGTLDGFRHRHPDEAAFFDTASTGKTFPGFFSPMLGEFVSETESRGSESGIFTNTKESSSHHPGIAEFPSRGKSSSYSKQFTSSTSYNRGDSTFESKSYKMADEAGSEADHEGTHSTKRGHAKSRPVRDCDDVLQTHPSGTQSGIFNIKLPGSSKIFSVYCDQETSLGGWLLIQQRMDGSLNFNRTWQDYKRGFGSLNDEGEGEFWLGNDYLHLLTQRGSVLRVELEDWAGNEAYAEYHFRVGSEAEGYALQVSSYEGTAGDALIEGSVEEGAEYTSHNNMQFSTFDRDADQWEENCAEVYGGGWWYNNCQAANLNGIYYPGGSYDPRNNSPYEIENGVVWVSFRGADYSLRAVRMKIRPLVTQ

Tests used:
[1] = molecular target: insoluble fibrin (UniProt P02671); experiment: ELISA, plate coated with insoluble fibrin, HRP-labeled antibody
[2] = molecular target: denatured fibrinogen (UniProt P02671); experiment: western blot on denatured fibrinogen (1 µg/lane)
[3] = molecular target: denatured fibrinogen (UniProt P02671); experiment: western blot on denatured fibrinogen after SDS-PAGE, anti-human IgG-HRP secondary

Measured: binding

B1: humanized 1101 antibody (antibody, V domains shown)
VH: EVQLVQSGAEVKKPGESLKISCKGSGYSFTSYWMHWVRQMPGKGLEWIGAIYPGNSDTRYSPSFQGQVTISADKSISTAYLQWSSLKASDTAMYYCTRKAHYGNYGFAYWGQGTLVTVSS
VL: DIQMTQSPSSLSASVGDRVTITCRASQHINNWLAWYQQKPGKAPKLLISGATSLQSGVPSRFSGSGSGTDFTLTISSLQPEDFATYYCQQYWSTPLTFGQGTKVEIKR
binds: all assays above

B2: humanized 99 antibody (antibody, V domains shown)
VH: QVQLVQSGAEVKKPGASVKVSCKASGYTFTNYGMNWVRQAPGQGLEWMGWINTKIGEPTYAQKFQGRVTMTRDKSSSTAYMELSSLRSEDTAVYYCARLLDYWGQGTLVTVSS
VL: DIQMTQSPSSLSASVGDRVTITCRASQSVLYSSNQKNYLAWYQQKPGKSPKLLIYWASSLQSGVPSRFSGSGSGTDFTLTISSLQPEDFATYYCHQYLSSYTFGQGTKVEIKR
binds: all assays above
